Experiment [1] deals with T1, 3×Flag-tagged HECTD3 (human) (UniProt Q5T447).
T1 sequence: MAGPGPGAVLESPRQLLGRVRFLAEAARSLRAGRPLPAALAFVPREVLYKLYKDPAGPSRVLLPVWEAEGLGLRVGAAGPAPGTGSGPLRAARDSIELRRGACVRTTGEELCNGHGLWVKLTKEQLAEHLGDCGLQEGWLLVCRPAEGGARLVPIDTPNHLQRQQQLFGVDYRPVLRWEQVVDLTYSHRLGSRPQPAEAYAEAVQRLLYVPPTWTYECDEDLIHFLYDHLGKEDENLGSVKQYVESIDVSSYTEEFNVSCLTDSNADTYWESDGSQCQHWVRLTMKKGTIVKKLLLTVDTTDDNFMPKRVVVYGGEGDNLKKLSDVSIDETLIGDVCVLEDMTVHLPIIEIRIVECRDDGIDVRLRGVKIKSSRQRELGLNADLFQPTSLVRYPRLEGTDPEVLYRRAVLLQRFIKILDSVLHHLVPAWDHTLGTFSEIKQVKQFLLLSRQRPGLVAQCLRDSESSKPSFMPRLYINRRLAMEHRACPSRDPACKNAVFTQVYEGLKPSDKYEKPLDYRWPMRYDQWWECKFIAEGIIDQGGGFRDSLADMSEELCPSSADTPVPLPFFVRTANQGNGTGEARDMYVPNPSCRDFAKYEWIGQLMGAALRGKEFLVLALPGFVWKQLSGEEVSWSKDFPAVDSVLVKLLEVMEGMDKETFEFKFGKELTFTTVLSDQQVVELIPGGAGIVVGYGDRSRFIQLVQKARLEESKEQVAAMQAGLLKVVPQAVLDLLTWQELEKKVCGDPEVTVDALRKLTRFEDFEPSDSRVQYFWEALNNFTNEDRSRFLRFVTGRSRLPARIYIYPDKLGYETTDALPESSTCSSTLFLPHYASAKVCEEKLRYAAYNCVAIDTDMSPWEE
The experiment is described as follows: co-IP; transfected HEK293T cells lysed in IP lysis buffer (50 mM Tris-HCl, 5 mM EDTA, 150 mM NaCl, 0.5% Nonidet-P40, 10% glycerol, pH 7.4); Flag-M2 beads at 4 °C overnight, washed 5 times, Western blot; in some panels 2.5 mM ATP, HECTD3 siRNA or co-expressed HECTD3 constructs.

Protein sequences, listed by entry. Tags and fused reporters are not part of them.
UniProt Q8R4B8: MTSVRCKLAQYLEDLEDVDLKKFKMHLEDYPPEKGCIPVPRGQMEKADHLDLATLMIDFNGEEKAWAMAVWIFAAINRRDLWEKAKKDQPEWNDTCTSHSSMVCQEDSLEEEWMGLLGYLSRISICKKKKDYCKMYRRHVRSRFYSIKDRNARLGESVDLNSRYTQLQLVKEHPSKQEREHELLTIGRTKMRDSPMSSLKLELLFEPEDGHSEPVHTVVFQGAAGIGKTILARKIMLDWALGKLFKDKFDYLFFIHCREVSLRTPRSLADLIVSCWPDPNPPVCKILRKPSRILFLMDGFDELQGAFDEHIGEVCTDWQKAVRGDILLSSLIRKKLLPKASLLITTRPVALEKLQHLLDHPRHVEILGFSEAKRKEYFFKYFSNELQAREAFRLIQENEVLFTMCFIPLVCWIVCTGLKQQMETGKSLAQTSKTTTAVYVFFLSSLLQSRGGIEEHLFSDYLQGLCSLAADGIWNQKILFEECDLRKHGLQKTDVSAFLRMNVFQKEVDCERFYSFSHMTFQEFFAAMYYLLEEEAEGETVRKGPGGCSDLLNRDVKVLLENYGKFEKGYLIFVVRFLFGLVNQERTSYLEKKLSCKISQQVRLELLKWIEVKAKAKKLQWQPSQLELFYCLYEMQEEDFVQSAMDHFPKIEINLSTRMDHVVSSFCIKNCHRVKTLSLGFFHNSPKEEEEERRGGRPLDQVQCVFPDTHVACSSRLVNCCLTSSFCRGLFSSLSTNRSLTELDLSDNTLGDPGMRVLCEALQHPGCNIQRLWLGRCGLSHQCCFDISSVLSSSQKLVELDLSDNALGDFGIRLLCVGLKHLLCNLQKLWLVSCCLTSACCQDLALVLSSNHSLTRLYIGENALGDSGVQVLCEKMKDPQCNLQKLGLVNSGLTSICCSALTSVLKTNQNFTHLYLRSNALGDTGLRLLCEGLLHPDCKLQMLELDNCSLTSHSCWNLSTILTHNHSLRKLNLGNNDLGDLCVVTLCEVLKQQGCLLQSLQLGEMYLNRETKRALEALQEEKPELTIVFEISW

Experiment [2] deals with T2, GST-HECTD3-DOC (human) (UniProt Q5T447).
T2 sequence: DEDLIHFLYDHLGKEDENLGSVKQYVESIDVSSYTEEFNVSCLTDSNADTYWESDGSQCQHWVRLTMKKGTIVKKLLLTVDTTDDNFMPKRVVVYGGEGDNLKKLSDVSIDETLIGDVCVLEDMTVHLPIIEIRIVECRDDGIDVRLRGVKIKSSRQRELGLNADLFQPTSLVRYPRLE
The experiment in a line: pull-down; transfected HEK293T cells lysed in IP lysis buffer (50 mM Tris-HCl, 5 mM EDTA, 150 mM NaCl, 0.5% Nonidet-P40, 10% glycerol, pH 7.4); GST beads at 4 °C overnight, washed 5 times, Western blot.

For experiment [3], the target named is endogenous NLRP3 (mouse (endogenous in BMDMs)) (UniProt Q8R4B8). The experiment in a line: co-IP; lysates of mouse BMDMs (LPS plus ATP; Hectd3+/+, Hectd3-/-, WT or Hectd3 KI) incubated with 2 μg/mL anti-NLRP3 antibody or isotype-matched IgG at 4 °C overnight, protein A/G beads 1 h, washed 5 times with IP lysis buffer, Western blot.
For experiment [4], the target named is 3×Flag-tagged NLRP3 (mouse) (UniProt Q8R4B8). The experiment in a line: co-IP; transfected HEK293T cells lysed in IP lysis buffer (50 mM Tris-HCl, 5 mM EDTA, 150 mM NaCl, 0.5% Nonidet-P40, 10% glycerol, pH 7.4); Flag-M2 beads at 4 °C overnight, washed 5 times, Western blot; in some panels 2.5 mM ATP, HECTD3 siRNA or co-expressed HECTD3 constructs.
Experiment [5] concerns the target GST-tagged NLRP3 (mouse) (UniProt Q8R4B8). The experiment in a line: pull-down; transfected HEK293T cells lysed in IP lysis buffer (50 mM Tris-HCl, 5 mM EDTA, 150 mM NaCl, 0.5% Nonidet-P40, 10% glycerol, pH 7.4); GST beads at 4 °C overnight, washed 5 times, Western blot.

Positions count from the first letter of the chain named. Results are given in words; binding and its absence hold for the method and conditions named. In cells and extracts the contact can be indirect. Some entries that bind do so weakly or less than the wild type. For part of these data: Where a sequence is shown, tags or fusion partners need not be part of it.

Regarding “GST-tagged NLRP3 (from UniProt Q8R4B8 1-1033)”, in experiment [1], the binding entry is “binds”. On to “3×Flag-tagged NLRP3 (from UniProt Q8R4B8 1-1033)”, for which the binding result in experiment [2] was “binds”.

B1: endogenous HECTD3 (enzyme, UniProt Q3U487 1-861)
chain: MAGPGPGAALESPRQLLGRVRFLAEAARSLRAGLPLPAALAFVPREVLYKLYKDPAGPSRVLLPVWEAEGLGLRVGAVGAAPGTGSGPLRAARDSIELRRGACVRTTGEELCNGHGLWVKLTKEQLAEHLSDCSLDEGWLLVCRPAEGGARLVPIDTPDHLQRQQQLFGVDYRPVLRWEQVVDLTYSHRLGSRPQPAEAYTEAIQRLLYVPPTWTYECDEDLIHFLYDHLGKEDENLGSVKQYVESIDVSSYTEEFNVSCLTDSNADTYWESDGSQCQHWVRLTMKKGTIVKKLLLTVDTTDDNFMPKRVVVYGGEGDNLKKLSDVNIDETLIGDVCVLEDMTVHLPIIEIRIVECRDDGIDVRLRGVKIKSSRQRELGLNADLFQPASLVRYPRLEGTDPEVLYRRAVLLQRFIKILDSVLHHLVPAWDHTLGTFSEIKQVKQFLLLSRQRPSLVAQCLRDSESSKPSFMPRLYINRRLAMEHRACPSRDPACKNAVFTQVYEGLKPSDKYEKPLDYRWPMRYDQWWECKFIAEGIIDQGGGFRDSLADMSEELCPSSADTPVPLPFFVRTANQGNGTGEARDMYVPNPSCRDFAKYEWIGQLMGAALRGKEFLVLALPGFVWKQLSGEEVSWSKDFPAVDSVLVKLLEVMEGVDKETFEFKFGKELTFTTVLSDQQVVELIPGGTGIVVEYEDRSRFIQLVRKARLEESKEQVAAMQAGLLKVVPQAVLDLLTWQELEKKVCGDPEVTVDALRKLTRFEDFEPSDTRVQYFWEALNNFTNEDRSRFLRFVTGRSRLPARIYIYPDKLGYETTDALPESSTCSSTLFLPHYASAKVCEEKLRYAAYNCVAIDTDMSPWEE
Take B1: in experiment [3], the binding result is reported as “binds”.

B2: HECTD3 (enzyme, UniProt Q5T447 1-861)
chain: T1 sequence
As to B2, the binding result in experiment [4] and in experiment [5] was “binds” each time.

B3: HECTD3C823A (enzyme, UniProt Q5T447 1-861)
chain: T1 sequence with C823A
As to B3, the binding result in experiment [4] is recorded as “binds”.

(Values after paper PMC10808187.)
